Experimental data as given in PubChem BioAssay AID493014 (National Center for Advancing Translational Sciences (NCATS), 2011).
This is one part of the list. Further columns of the screen follow, without active or inactive calls. Most of these compounds were active or inconclusive in the main read-out, so they are no random draw. The note in brackets gives the kind of curve behind each potency; many fits are weak.

Assay: qHTS Assay to Find Inhibitors of Chronic Active B-Cell Receptor Signaling
Details: ABC-DLBCL IkBa-CBG/CBR reporter, luminescence ratio (green luciferase fused to IkBa over red control in TMD8 lymphoma cells), 4 h
Method in brief: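 Doxycycline induced both beetle luciferases in TMD8 lymphoma cells; IKK-driven degradation limits the IkappaBalpha-fused green signal, while red luminescence normalises for cell number and nonspecific effects. Compounds tested up to 46 uM, 4 hrs.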

[1] = measured here: CBR red luminescence, cell number
[2] = measured here: IkBa-CBG green luminescence

COc1ccc(CNCCC(c2ccc(OC(C)C)cc2)c2ccccc2OC)cc1 (stereo unspecified)
AC50 [1]: 17.8 µM [falling, single point]

COc1cc(OC)c2c(-c3cccc(-c4ccc(O)cc4)c3)cc(=O)oc2c1
AC50 [1]: 2.59 µM [rising, full curve] | AC50 [2]: 3.66 µM [falling, full curve]

COc1ccc(C=NNC(=O)c2cc(C)oc2C)cc1O
AC50 [1]: 9.2 µM [falling, partial curve]

Cc1ccc(NC(=O)CC2Nc3ccccc3NC2=O)cc1Cl (stereo unspecified)
AC50 [1]: 7.08 µM [falling, partial curve]

CCCNc1c(N)c(=O)oc2ccccc12
AC50 [1]: 0.291 µM [falling, full curve]

CCCCOc1ccccc1NC(=O)c1ccco1
AC50 [1]: 25.9 µM [falling, single point]

O=C(Nc1nc2c(c(=O)[nH]1)CCCC2)C1CC1
AC50 [1]: 11.6 µM [falling, partial curve, poor fit]

O=C1NC(=Nc2ccccc2Cl)S/C1=C\c1ccc(C(=O)O)cc1
AC50 [1]: 0.501 µM [falling, full curve]

Cc1ccc(N=Cc2c(O)c3ccccc3oc2=O)c(C)c1
AC50 [1]: 6.31 µM [falling, partial curve, poor fit]

COc1ccc(-n2c(-c3ccc(Cl)cc3)c[nH]c2=S)cc1
AC50 [1]: 35.5 µM [falling, single point]

N#CC(C#N)=Cc1ccc(-c2ccc(S(=O)(=O)N=C(N)N)cc2)o1
AC50 [1]: 14.6 µM [falling, partial curve, poor fit]

COc1cc(OC)c(C2Oc3nc(SC)nnc3-c3ccccc3N2C(C)=O)cc1OC (stereo unspecified)
AC50 [1]: 20.6 µM [rising, single point]

Cn1nc(OCc2ccccc2)ccc1=O
AC50 [1]: 2.82 µM [falling, partial curve, poor fit]

CSc1nc(C)cc(OCCO)n1
AC50 [1]: 0.231 µM [falling, full curve, poor fit]

COc1cc2cc(CN(C(=O)Nc3ccccc3)C3CCCC3)c(=O)[nH]c2cc1OC
AC50 [1]: 28.2 µM [falling, single point]

N/C(=N\OC(=O)/C=C/c1ccc(Br)cc1)c1ccccn1
AC50 [1]: 4.11 µM [rising, single point]

Cc1csc(=O)n1CCC(=O)OCC(=O)NNC(=O)c1ccc(Br)cc1
AC50 [1]: 13 µM [rising, partial curve, poor fit]

O=C(N/N=C/c1c(Cl)cccc1Cl)c1n[nH]c2c1CCCC2
AC50 [1]: 18.4 µM [falling, single point]

Cc1ccc(S(=O)(=O)CC(C)(O)CS(=O)(=O)c2ccc(C)cc2)cc1
AC50 [1]: 35.5 µM [rising, single point]

O=C(NCc1ccco1)c1cc(-c2ccncc2)nc2ccccc12
AC50 [1]: 35.5 µM [falling, single point]

Cc1cccc(OCC(=O)Nc2nccs2)c1C
AC50 [1]: 10 µM [falling, partial curve, poor fit]

O=C(COc1ccc(F)cc1)NCC1(N2CCOCC2)CCCCC1
AC50 [1]: 29.1 µM [rising, partial curve, poor fit]

Cc1cnc(CN2CCc3c([nH]c4ccccc34)C2CC(C)C)[nH]1 (stereo unspecified)
AC50 [1]: 17.8 µM [falling, single point]

Cc1cc([N+](=O)[O-])nn1Cc1ccccc1F
AC50 [1]: 0.112 µM [rising, full curve, poor fit]

COc1ccc(CC2(CO)CCN(Cc3cccc(OC)c3OC)CC2)cc1
AC50 [1]: 8.91 µM [rising, partial curve, poor fit]

COc1ccccc1CNC(=O)CSc1ccc(C)cc1
AC50 [2]: 29.1 µM [falling, partial curve, poor fit]

N#C/C(=C\c1cn[nH]c1-c1ccc(Cl)cc1)C(=O)NCc1ccccc1
AC50 [1]: 3.66 µM [rising, single point]

COc1cccc(/C=C/C(=O)N2CCN(c3ccccn3)CC2)c1
AC50 [1]: 8.91 µM [falling, partial curve]

O=C(/C=C/NNC(=O)c1ccccc1)c1ccc(Br)cc1
AC50 [1]: 7.31 µM [falling, partial curve]

COc1ccc(C(CC(=O)Nc2nccs2)n2cccc2)cc1 (stereo unspecified)
AC50 [1]: 15.8 µM [falling, single point]

CN(C)CCNC(=O)c1ccc(COc2ccc(Cl)cc2Cl)cc1
AC50 [1]: 25.1 µM [falling, single point]

O=C(NNc1nc2c(F)cccc2s1)c1ccccc1
AC50 [1]: 15.8 µM [falling, single point]

CC(C)Cc1nnc(NC(=O)Cc2ccc([N+](=O)[O-])cc2)s1
AC50 [1]: 7.31 µM [rising, partial curve]

CC(=O)Nc1ccc2nc(SCC(=O)Nc3ccc(N4CCOCC4)c(Cl)c3)sc2c1
AC50 [1]: 11.2 µM [falling, partial curve]

CCc1cccc(CC)c1NC(=O)CSc1nc2ccc(N3C(=O)C4C(C3=O)[C@H]3C=C[C@@H]4C3)cc2s1 (stereo partly specified)
AC50 [1]: 0.82 µM [falling, full curve, poor fit]

CN(C)C1N(C(=O)c2ccccc2)N=C2c3ccccc3S(=O)(=O)N21 (stereo unspecified)
AC50 [1]: 35.5 µM [rising, single point]

CCOC(=O)c1cc(CC)sc1NC(=O)Cc1ccccc1
AC50 [1]: 16.4 µM [rising, single point]

O=C(Nc1ccc(F)c(Cl)c1)Nc1csc2ccccc12
AC50 [1]: 35.5 µM [falling, single point]

Cc1cc(N2CCCCC2)ccc1[N+](=O)[O-]
AC50 [1]: 20.6 µM [rising, single point]

CCOc1cccc(-c2nnc3sc(-c4cc(OC)c(OC)cc4OC)nn23)c1
AC50 [1]: 35.5 µM [rising, single point]

CCOC(=O)c1cnc(SC)nc1Sc1cc(Cl)ccc1Cl
AC50 [1]: 6.31 µM [rising, single point]

Clc1ccc(N2CCN(/N=C/c3ccncc3)CC2)cc1
AC50 [1]: 14.1 µM [rising, partial curve, poor fit]

CCOc1ccccc1NC(=O)Nc1ccsc1C(=O)OC
AC50 [1]: 5.01 µM [falling, partial curve]

C/C(=N/NS(=O)(=O)c1ccc(Cl)cc1)c1cccc(NC(=O)c2ccncc2)c1
AC50 [2]: 12.6 µM [falling, partial curve, poor fit]

CN(Cc1ccccc1)C(=O)COc1ccc(N(C)S(=O)(=O)c2ccc(F)cc2)cc1
AC50 [1]: 25.1 µM [falling, single point]

CCC(CC)C(=O)Nc1cccc(C(=O)Nc2nnc(C)s2)c1
AC50 [1]: 20 µM [falling, partial curve, poor fit]

O=C(CN1CC[C@@]2(O)CCCC[C@H]2[C@@H]1c1ccc(F)cc1)NCc1ccco1
AC50 [1]: 4.47 µM [falling, partial curve, poor fit]

Cc1cccc(NC(=O)CN(C2=NC3CS(=O)(=O)CC3S2)c2ccccc2F)c1 (stereo unspecified)
AC50 [1]: 35.5 µM [falling, single point]

CCOc1ccccc1Nc1nnc(SCC(=O)Nc2cccc(S(=O)(=O)NC3=NCCCCC3)c2)s1
AC50 [1]: 18.4 µM [falling, single point]

CCOC(=O)c1cnn(Cc2cccc(Cl)c2)c1C
AC50 [1]: 0.1 µM [falling, full curve, poor fit]

CN(C)c1ccc(/C=C/C#N)cc1
AC50 [1]: 12.6 µM [rising, single point]

CCOC(=O)c1c(NC(=O)COc2cccc3c2CCN(C)C3=O)sc2c1CCC2
AC50 [1]: 2.59 µM [falling, full curve, poor fit]

CN(C)/N=C/C=C1\CC/C(=C\c2ccc(Br)cc2)C1=O
AC50 [1]: 20.6 µM [falling, partial curve, poor fit]

O=C(Nc1ccc(Cl)c([N+](=O)[O-])c1)Nc1nc2ccccc2s1
AC50 [1]: 4.47 µM [rising, partial curve, poor fit]

O=C(O)c1c(C(=O)N2N=C3/C(=C/c4ccccc4)CCCC3C2c2ccccc2)cccc1[N+](=O)[O-] (stereo unspecified)
AC50 [1]: 7.08 µM [falling, full curve, poor fit]

COC(=O)CNC(=O)CN1C(=O)N(c2ccc(Cl)cc2)C(N(O)C(=O)Nc2ccc(Cl)cc2)C1(C)C (stereo unspecified)
AC50 [1]: 6.31 µM [rising, single point]

O=C(N/N=C/c1ccc2c(c1)OCO2)c1ccn(Cc2ccc(Cl)cc2)n1
AC50 [1]: 1.58 µM [falling, full curve]

CN1/C(=C\C(=O)CN2C(=O)NC3(CCCCCC3)C2=O)C(C)(C)c2ccccc21
AC50 [1]: 0.13 µM [rising, full curve, poor fit]

CCOc1cc(C2/C(=C(/O)c3ccc(OC)cc3)C(=O)C(=O)N2CC2CCCO2)ccc1O (stereo unspecified)
AC50 [1]: 22.4 µM [falling, single point]

Clc1ccc(OCCN2CCCCC2)c(Cl)c1
AC50 [1]: 6.51 µM [rising, single point]

CC(C)n1c(C(=O)OCC(=O)NCc2ccc3c(c2)OCO3)cc2sccc21
AC50 [1]: 35.5 µM [falling, single point]

Cc1cc(/C=C2/C(=O)NN(c3ccccc3)C2=O)c(C)n1-c1ccc(O)cc1
AC50 [1]: 23.1 µM [falling, partial curve, poor fit]

CC1CCN(C(=O)CSc2nc3ccccc3s2)CC1
AC50 [1]: 2.91 µM [rising, full curve, poor fit]

COc1ccc(CN2C=C3C(=O)C(C)(OC(=O)CCc4ccccc4)C(=O)C=C3C=C2c2ccc(C#N)cc2)cc1 (stereo unspecified)
AC50 [1]: 2.51 µM [rising, full curve, poor fit]

CC(=O)c1ccc(N2CCN(C(=S)Nc3cccc(Cl)c3)CC2)cc1
AC50 [1]: 25.9 µM [rising, single point]
